From PMC12041353
Results are given in words; binding and its absence hold for the method and conditions named. In cells and extracts the contact can be indirect. Some entries that bind do so weakly or less than the wild type. For some assays here: Where a sequence is shown, tags or fusion partners need not be part of it.

Amino acid sequences for entries named in this document (tags omitted).
UniProt Q9GZV5: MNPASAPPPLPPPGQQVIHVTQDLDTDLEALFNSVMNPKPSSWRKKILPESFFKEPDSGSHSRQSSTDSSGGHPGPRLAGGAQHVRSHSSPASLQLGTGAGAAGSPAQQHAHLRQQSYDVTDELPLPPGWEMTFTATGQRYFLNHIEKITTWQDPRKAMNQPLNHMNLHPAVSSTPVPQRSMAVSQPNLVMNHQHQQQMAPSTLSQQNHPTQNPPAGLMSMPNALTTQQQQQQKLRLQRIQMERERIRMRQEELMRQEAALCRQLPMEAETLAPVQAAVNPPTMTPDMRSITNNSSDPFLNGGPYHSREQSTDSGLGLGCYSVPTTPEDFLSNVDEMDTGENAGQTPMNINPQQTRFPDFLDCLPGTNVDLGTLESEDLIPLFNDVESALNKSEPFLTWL

What was measured:
[1] = target: HA-TAZ (transcriptional coactivator with PDZ-binding motif) (human) (UniProt Q9GZV5); assay: co-IP; HEK293T cells transfected with TAZ and NRF2 plasmids (full length or domain-deleted); lysate in IP buffer incubated overnight at 4 °C with Flag magnetic beads and specific antibodies; western blot
[2] = target: TAZ (transcriptional coactivator with PDZ-binding motif), endogenous (human (endogenous in T24)) (UniProt Q9GZV5); assay: co-IP; endogenous TAZ and NRF2 in T24 cells; western blot

Binder	binding [1]	binding [2]
Flag-NRF2 (nuclear factor erythroid 2-related factor 2) (protein, UniProt Q16236 1-605) MMDLELPPPGLPSQQDMDLIDILWRQDIDLGVSREVFDFSQRRKEYELEKQKKLEKERQEQLQKEQEKAFFAQLQLDEETGEFLPIQPAQHIQSETSGSANYSQVAHIPKSDALYFDDCMQLLAQTFPFVDDNEVSSATFQSLVPDIPGHIESPVFIATNQAQSPETSVAQVAPVDLDGMQQDIEQVWEELLSIPELQCLNIENDKLVETTMVPSPEAKLTEVDNYHFYSSIPSMEKEVGNCSPHFLNAFEDSFSSILSTEDPNQLTVNSLNSDATVNTDFGDEFYSAFIAEPSISNSMPSPATLSHSLSELLNGPIDVSDLSLCKAFNQNHPESTAEFNDSDSGISLNTSPSVASPEHSVESSSYGDTLLGLSDSEVEELDSAPGSVKQNGPKTPVHSSGDMVQPLSPSQGQSTHVHDAQCENTPEKELPVSPGHRKTPFTKDKHSSRLEAHLTRDELRAKALHIPFPVEKIINLPVVDFNEMMSKEQFNEAQLALIRDIRRRGKNKVAAQNCRKRKLENIVELEQDLDHLKDEKEKLLKEKGENDKSLHLLKKQLSTLYLEVFSMLRDEDGKPYSPSEYSLQQTRDGNVFLVPKSKKPDVKKN	binds	–
NRF2 (nuclear factor erythroid 2-related factor 2), endogenous (protein, UniProt Q16236 1-605) MMDLELPPPGLPSQQDMDLIDILWRQDIDLGVSREVFDFSQRRKEYELEKQKKLEKERQEQLQKEQEKAFFAQLQLDEETGEFLPIQPAQHIQSETSGSANYSQVAHIPKSDALYFDDCMQLLAQTFPFVDDNEVSSATFQSLVPDIPGHIESPVFIATNQAQSPETSVAQVAPVDLDGMQQDIEQVWEELLSIPELQCLNIENDKLVETTMVPSPEAKLTEVDNYHFYSSIPSMEKEVGNCSPHFLNAFEDSFSSILSTEDPNQLTVNSLNSDATVNTDFGDEFYSAFIAEPSISNSMPSPATLSHSLSELLNGPIDVSDLSLCKAFNQNHPESTAEFNDSDSGISLNTSPSVASPEHSVESSSYGDTLLGLSDSEVEELDSAPGSVKQNGPKTPVHSSGDMVQPLSPSQGQSTHVHDAQCENTPEKELPVSPGHRKTPFTKDKHSSRLEAHLTRDELRAKALHIPFPVEKIINLPVVDFNEMMSKEQFNEAQLALIRDIRRRGKNKVAAQNCRKRKLENIVELEQDLDHLKDEKEKLLKEKGENDKSLHLLKKQLSTLYLEVFSMLRDEDGKPYSPSEYSLQQTRDGNVFLVPKSKKPDVKKN	–	binds
